Values of other authors, collected in patent US20110045032A1 (priority 2001, published 2011).

What was measured:
[1] = system: children with non-allergic perennial rhinitis (NAPR) and allergic perennial rhinitis (APR); conditions: IB compared with BDP; cited from earlier work
mast cells = conditions: cited from earlier work
[2] = system: adult acute asthma exacerbation; conditions: three trials in adults; 95% CI 0.61-1.06; cited from earlier work

SMILES	nasal bleeding and irritation [1]	decrease in speed of passive calcium ion uptake (mast cells)	relative risk of hospitalization [2]
CC(C)[N+]1(C)[C@@H]2CC[C@H]1C[C@@H](OC(=O)C(CO)c1ccccc1)C2 (stereo partly shown) [IB, Ipratropium Bromide]	less nasal bleeding and irritation	28%	0.80
CN1[C@@H]2CC[C@H]1C[C@@H](OC(=O)C(CO)c1ccccc1)C2 (stereo partly shown) [atropine]		not	
